These are yes or no findings as the source states them, for the method shown. For some assays here: In cells and extracts the contact can be indirect. Some results given as binding are weak or reduced against the parent protein; the word gives no strength. For some assays here: Tags and fused reporters may be left off the sequences shown.
Key:
[1] = target: RocS in S. pneumoniae cells (tagged fusion for co-immunoprecipitation) (Streptococcus pneumoniae) (UniProt Q8DQ15); assay: co-IP
[2] = target: T1, RocS-ΔAH-6His (Streptococcus pneumoniae) (UniProt Q8DQ15); assay: MST
T1 sequence (chain, labeled with the red dye NT-647): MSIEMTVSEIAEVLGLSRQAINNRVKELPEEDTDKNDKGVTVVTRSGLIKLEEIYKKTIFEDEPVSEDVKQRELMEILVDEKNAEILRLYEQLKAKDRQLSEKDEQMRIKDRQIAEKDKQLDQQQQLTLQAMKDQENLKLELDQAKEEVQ

Amino acid sequences for entries named in this document (tags omitted).
UniProt A0ACD7PUJ9: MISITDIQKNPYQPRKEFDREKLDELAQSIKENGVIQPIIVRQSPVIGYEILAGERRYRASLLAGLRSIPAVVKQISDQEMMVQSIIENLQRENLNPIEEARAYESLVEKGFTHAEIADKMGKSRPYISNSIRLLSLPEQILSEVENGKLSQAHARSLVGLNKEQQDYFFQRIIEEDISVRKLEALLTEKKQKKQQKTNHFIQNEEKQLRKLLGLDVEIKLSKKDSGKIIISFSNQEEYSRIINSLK

Row | Substance | binding [1] | binding [2]
1 | ParB in S. pneumoniae cells (tagged fusion for co-immunoprecipitation) (from UniProt A0ACD7PUJ9 1-247) | binds | 
2 | ParB-6His (from UniProt A0ACD7PUJ9 1-247) |  | binds

Source: article doi:10.1101/359943
